{"source": "patent US8343491B2", "about": "“Anti-HIMF antibodies to treat lung diseases” (The Johns Hopkins University, priority 2006, dated 2013)", "test_system": "HIMF", "test": "Western blot of HIMF expression in lungs of hypoxic rats", "assay_type": "in vivo, Sprague-Dawley rats", "conditions": "hypoxia (10% FiO2) 14 d, once daily simvastatin 20 mg/kg IP", "note": "Entries after “also recorded” stand apart in the source; their conditions may differ. At least one compound was matched to its structure with a doubt left.", "data": [{"compound": "CCC(C)(C)C(=O)O[C@H]1C[C@@H](C)C=C2C=C[C@H](C)[C@H](CC[C@@H]3C[C@@H](O)CC(=O)O3)[C@H]21", "note": "[simvastatin]", "values": [{"measurement": "HIMF expression in the lungs (Western blot)", "value": "blocks; also recorded: almost complete reduction"}]}]}
